Source: the supplement of paper PMC6078165
± gives the standard deviation of the averaged measurements. The reference is the same well before dosing, and untreated signal decays as well.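 Fibroblast labels name human fibroblasts: mostly primary ones from tissues such as uterus (C12385, HUF), lung (H6013), bone (Hs27A), adrenal (HADF) and skin (WS1), plus mammary HMF and breast cancer-associated Hs343T. The cancer cells are basal-like or mesenchymal-like triple-negative breast cancer lines. The paper calls a changed response a hit when it shifts by more than 3x the replicate standard deviation. The tissue of the other fibroblasts is not given here.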

System: MDAMB231
Experiment: relative JC-1 red fluorescence (viability) vs pre-drug, coculture with fibroblast (fraction); higher = more viable cancer cells
Protocol: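 JC-1 labelled TNBC cells cocultured 1:1 (1,500 cells each) with CellTrace Violet stained primary or stromal fibroblasts in 384-well plates in FluoroBrite medium, treated with one of 42 anticancer drugs at 0.1, 1, 10 or 100 uM. JC-1 red fluorescence (mitochondrial integrity in cancer cells only) was read by plate reader every 8 h for 72 h. Values are normalised to each well's pre-drug value. The stock of one drug was tenfold lower, so its dose labels may be too high.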

CN(Cc1cnc2nc(N)nc(N)c2n1)c1ccc(C(=O)N[C@@H](CCC(=O)O)C(=O)O)cc1 [Methotrexate]
relative JC-1 red fluorescence
Conditions | 8 h | 16 h | 24 h | 32 h | 40 h | 48 h | 56 h | 64 h | 72 h
10 µM, coculture fibroblast: C12385 | 0.756 ± 0.016 | 0.685 ± 0.061 | 0.644 ± 0.072 | 0.594 ± 0.0085 | 0.537 ± 0.0088 | 0.516 ± 0.019 | 0.487 ± 0.022 | 0.489 ± 0.036 | 0.482 ± 0.046
10 µM, coculture fibroblast: H6013 | 0.8879 ± 0.00011 | 0.8061 ± 0.0014 | 0.76 ± 0.011 | 0.731 ± 0.016 | 0.694 ± 0.016 | 0.679 ± 0.011 | 0.657 ± 0.016 | 0.64 ± 0.0079 | 0.603 ± 0.027
10 µM, coculture fibroblast: H6019 | 0.73 ± 0.037 | 0.634 ± 0.012 | 0.594 ± 0.0073 | 0.5557 ± 0.0046 | 0.511 ± 0.019 | 0.507 ± 0.031 | 0.474 ± 0.039 | 0.484 ± 0.025 | 0.464 ± 0.0096
10 µM, coculture fibroblast: H6076 | 0.905 ± 0.018 | 0.85 ± 0.079 | 0.84 ± 0.13 | 0.84 ± 0.16 | 0.829 ± 0.18 | 0.813 ± 0.2 | 0.797 ± 0.22 | 0.796 ± 0.22 | 0.804 ± 0.23
10 µM, coculture fibroblast: H6231 | 0.931 ± 0.023 | 0.842 ± 0.021 | 0.7765 ± 0.0055 | 0.745 ± 0.013 | 0.704 ± 0.016 | 0.676 ± 0.025 | 0.642 ± 0.043 | 0.63 ± 0.049 | 0.629 ± 0.043
10 µM, coculture fibroblast: HADF | 0.897 ± 0.018 | 0.811 ± 0.0097 | 0.7616 ± 0.0046 | 0.719 ± 0.023 | 0.691 ± 0.024 | 0.651 ± 0.025 | 0.626 ± 0.03 | 0.614 ± 0.026 | 0.576 ± 0.032
10 µM, coculture fibroblast: HCFa | 0.888 ± 0.018 | 0.822 ± 0.043 | 0.78 ± 0.04 | 0.739 ± 0.045 | 0.697 ± 0.042 | 0.666 ± 0.045 | 0.635 ± 0.036 | 0.612 ± 0.032 | 0.577 ± 0.023
10 µM, coculture fibroblast: HCPF | 0.8733 ± 0.0057 | 0.787 ± 0.019 | 0.7 ± 0.039 | 0.661 ± 0.056 | 0.608 ± 0.063 | 0.569 ± 0.066 | 0.529 ± 0.07 | 0.505 ± 0.07 | 0.489 ± 0.067
10 µM, coculture fibroblast: HHSteC | 0.925 ± 0.019 | 0.861 ± 0.033 | 0.818 ± 0.041 | 0.774 ± 0.051 | 0.731 ± 0.069 | 0.703 ± 0.065 | 0.662 ± 0.077 | 0.653 ± 0.064 | 0.614 ± 0.06
10 µM, coculture fibroblast: HMF | 0.896 ± 0.073 | 0.818 ± 0.084 | 0.755 ± 0.077 | 0.712 ± 0.068 | 0.681 ± 0.054 | 0.645 ± 0.037 | 0.605 ± 0.027 | 0.585 ± 0.031 | 0.569 ± 0.023
10 µM, coculture fibroblast: HPFa | 0.9429 ± 0.0018 | 0.873 ± 0.0065 | 0.8135 ± 0.0018 | 0.764 ± 0.0094 | 0.751 ± 0.012 | 0.726 ± 0.02 | 0.685 ± 0.026 | 0.672 ± 0.023 | 0.64 ± 0.013
10 µM, coculture fibroblast: HUF | 0.838 ± 0.011 | 0.7024 ± 0.0046 | 0.756 ± 0.051 | 0.62 ± 0.024 | 0.554 ± 0.027 | 0.538 ± 0.046 | 0.493 ± 0.053 | 0.502 ± 0.06 | 0.496 ± 0.061
10 µM, coculture fibroblast: Hs5 | 0.834 ± 0.037 | 0.761 ± 0.024 | 0.729 ± 0.018 | 0.698 ± 0.014 | 0.6726 ± 0.0056 | 0.628 ± 0.0092 | 0.626 ± 0.0083 | 0.62217 ± 0.00061 | 0.6222 ± 0.006
10 µM, coculture fibroblast: Hs27A | 0.904 ± 0.011 | 0.862 ± 0.015 | 0.83 ± 0.038 | 0.808 ± 0.044 | 0.77 ± 0.051 | 0.712 ± 0.04 | 0.733 ± 0.053 | 0.718 ± 0.049 | 0.677 ± 0.053
10 µM, coculture fibroblast: Hs343T | 0.8736 ± 0.0018 | 0.776 ± 0.021 | 0.694 ± 0.021 | 0.641 ± 0.021 | 0.576 ± 0.023 | 0.52 ± 0.036 | 0.467 ± 0.037 | 0.444 ± 0.047 | 0.414 ± 0.049
10 µM, coculture fibroblast: WS1 | 0.7668 ± 0.0051 | 0.6784 ± 0.0061 | 0.672 ± 0.01 | 0.584 ± 0.0079 | 0.532 ± 0.018 | 0.514 ± 0.023 | 0.468 ± 0.035 | 0.47 ± 0.032 | 0.461 ± 0.028
100 µM, coculture fibroblast: C12385 | 0.755 ± 0.043 | 0.735 ± 0.059 | 0.695 ± 0.1 | 0.682 ± 0.098 | 0.595 ± 0.077 | 0.56 ± 0.027 | 0.542 ± 0.035 | 0.548 ± 0.042 | 0.546 ± 0.056
100 µM, coculture fibroblast: H6013 | 0.878 ± 0.011 | 0.821 ± 0.028 | 0.769 ± 0.028 | 0.741 ± 0.036 | 0.695 ± 0.044 | 0.679 ± 0.077 | 0.657 ± 0.077 | 0.628 ± 0.092 | 0.582 ± 0.086
100 µM, coculture fibroblast: H6019 | 0.726 ± 0.022 | 0.662 ± 0.027 | 0.6607 ± 0.0049 | 0.5965 ± 0.0044 | 0.5579 ± 0.0016 | 0.5559 ± 0.0045 | 0.52149 ± 0.00027 | 0.532 ± 0.0056 | 0.511 ± 0.015
100 µM, coculture fibroblast: H6076 | 0.8832 ± 0.0036 | 0.819 ± 0.026 | 0.802 ± 0.075 | 0.783 ± 0.096 | 0.751 ± 0.11 | 0.721 ± 0.12 | 0.709 ± 0.14 | 0.696 ± 0.15 | 0.692 ± 0.15
100 µM, coculture fibroblast: H6231 | 0.92 ± 0.021 | 0.824 ± 0.029 | 0.7221 ± 0.0032 | 0.67162 ± 0.00057 | 0.61 ± 0.0071 | 0.583 ± 0.013 | 0.547 ± 0.016 | 0.533 ± 0.016 | 0.503 ± 0.012
100 µM, coculture fibroblast: HADF | 0.8777 ± 0.0084 | 0.8418 ± 0.0052 | 0.7853 ± 0.0027 | 0.734 ± 0.0066 | 0.702 ± 0.01 | 0.662 ± 0.011 | 0.636 ± 0.015 | 0.623 ± 0.018 | 0.5732 ± 0.0056
100 µM, coculture fibroblast: HCFa | 0.883 ± 0.019 | 0.829 ± 0.011 | 0.7754 ± 0.0038 | 0.7312 ± 0.0051 | 0.681 ± 0.011 | 0.64 ± 0.0068 | 0.6182 ± 0.0042 | 0.592 ± 0.012 | 0.556 ± 0.017
100 µM, coculture fibroblast: HCPF | 0.845 ± 0.056 | 0.754 ± 0.05 | 0.678 ± 0.034 | 0.643 ± 0.022 | 0.574 ± 0.02 | 0.534 ± 0.018 | 0.51 ± 0.019 | 0.478 ± 0.023 | 0.462 ± 0.019
100 µM, coculture fibroblast: HHSteC | 0.90683 ± 0.00025 | 0.866 ± 0.021 | 0.817 ± 0.012 | 0.7626 ± 0.00077 | 0.723 ± 0.00075 | 0.6885 ± 0.0048 | 0.6559 ± 0.0054 | 0.6346 ± 0.0041 | 0.59 ± 0.014
100 µM, coculture fibroblast: HMF | 0.883 ± 0.043 | 0.822 ± 0.06 | 0.757 ± 0.074 | 0.718 ± 0.077 | 0.667 ± 0.077 | 0.624 ± 0.086 | 0.594 ± 0.079 | 0.567 ± 0.086 | 0.548 ± 0.079
100 µM, coculture fibroblast: HPFa | 0.9403 ± 0.0085 | 0.885 ± 0.015 | 0.83 ± 0.022 | 0.777 ± 0.021 | 0.759 ± 0.027 | 0.738 ± 0.02 | 0.699 ± 0.018 | 0.687 ± 0.02 | 0.648 ± 0.023
100 µM, coculture fibroblast: HUF | 0.8574 ± 0.0047 | 0.73 ± 0.013 | 0.747 ± 0.045 | 0.617 ± 0.017 | 0.542 ± 0.029 | 0.524 ± 0.037 | 0.486 ± 0.041 | 0.485 ± 0.054 | 0.471 ± 0.058
100 µM, coculture fibroblast: Hs5 | 0.872 ± 0.013 | 0.785 ± 0.037 | 0.721 ± 0.025 | 0.682 ± 0.036 | 0.642 ± 0.039 | 0.598 ± 0.038 | 0.58 ± 0.032 | 0.563 ± 0.035 | 0.553 ± 0.038
100 µM, coculture fibroblast: Hs27A | 0.8946 ± 0.0016 | 0.822 ± 0.0092 | 0.78 ± 0.0083 | 0.749 ± 0.018 | 0.704 ± 0.02 | 0.631 ± 0.025 | 0.657 ± 0.022 | 0.65 ± 0.018 | 0.611 ± 0.018
100 µM, coculture fibroblast: Hs343T | 0.881 ± 0.024 | 0.769 ± 0.009 | 0.701 ± 0.024 | 0.655 ± 0.035 | 0.583 ± 0.03 | 0.536 ± 0.029 | 0.501 ± 0.024 | 0.476 ± 0.023 | 0.449 ± 0.025
100 µM, coculture fibroblast: WS1 | 0.754 ± 0.025 | 0.71 ± 0.049 | 0.608 ± 0.021 | 0.584 ± 0.055 | 0.536 ± 0.06 | 0.505 ± 0.047 | 0.469 ± 0.043 | 0.467 ± 0.037 | 0.448 ± 0.037
